The structures appear in SMILES notation. The list shows a part of the results, in another mix than the full data. The calls were merged from several studies; some rest on single wells. The list shows a part of the results.

Chains of the proteins cited; added tags and fusions are not shown. Lines headed by an entry give the natural chain unless they say otherwise; changes in a name come on top. Chains listed by the source or under a name are the forms on record and can include a tag or linker.
UniProt Q6IFN5: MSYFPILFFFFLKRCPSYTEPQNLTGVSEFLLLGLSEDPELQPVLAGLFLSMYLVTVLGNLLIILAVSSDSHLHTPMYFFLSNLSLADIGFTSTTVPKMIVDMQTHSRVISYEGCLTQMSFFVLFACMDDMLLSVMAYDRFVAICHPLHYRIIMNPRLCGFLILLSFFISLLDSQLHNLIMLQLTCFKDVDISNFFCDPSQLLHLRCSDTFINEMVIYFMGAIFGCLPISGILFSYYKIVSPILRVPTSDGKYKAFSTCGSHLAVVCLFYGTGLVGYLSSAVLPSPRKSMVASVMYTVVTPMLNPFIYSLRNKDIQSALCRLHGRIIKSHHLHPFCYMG
OR7D4 H131Q, as listed by the source, stated change not applied: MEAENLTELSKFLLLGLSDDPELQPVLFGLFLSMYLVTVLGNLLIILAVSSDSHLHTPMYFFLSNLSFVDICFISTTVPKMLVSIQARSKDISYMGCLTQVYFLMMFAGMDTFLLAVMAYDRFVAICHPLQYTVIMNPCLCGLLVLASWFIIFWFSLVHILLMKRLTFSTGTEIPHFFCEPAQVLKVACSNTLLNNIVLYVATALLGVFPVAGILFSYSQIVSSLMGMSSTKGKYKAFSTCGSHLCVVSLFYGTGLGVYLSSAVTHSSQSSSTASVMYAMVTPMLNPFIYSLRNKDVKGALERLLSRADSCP
OR7D4 S84N, as listed by the source, stated change not applied: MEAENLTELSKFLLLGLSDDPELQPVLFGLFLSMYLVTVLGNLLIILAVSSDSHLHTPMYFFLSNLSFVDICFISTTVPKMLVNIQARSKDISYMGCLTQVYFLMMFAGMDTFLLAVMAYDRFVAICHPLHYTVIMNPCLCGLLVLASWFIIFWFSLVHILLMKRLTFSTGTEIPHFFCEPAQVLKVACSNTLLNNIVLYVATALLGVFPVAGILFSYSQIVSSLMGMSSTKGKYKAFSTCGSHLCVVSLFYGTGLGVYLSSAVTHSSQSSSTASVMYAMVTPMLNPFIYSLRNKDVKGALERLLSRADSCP
OR7D4 M136I, as listed by the source, stated change not applied: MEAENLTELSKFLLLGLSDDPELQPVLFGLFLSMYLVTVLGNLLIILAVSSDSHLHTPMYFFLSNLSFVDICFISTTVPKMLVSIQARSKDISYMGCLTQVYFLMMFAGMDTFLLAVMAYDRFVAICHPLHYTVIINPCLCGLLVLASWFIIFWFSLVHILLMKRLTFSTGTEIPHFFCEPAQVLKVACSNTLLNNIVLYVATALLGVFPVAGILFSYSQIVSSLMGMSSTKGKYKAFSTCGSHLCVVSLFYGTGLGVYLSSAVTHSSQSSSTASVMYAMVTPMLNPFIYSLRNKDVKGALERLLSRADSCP
OR7D4 T133M, as listed by the source, stated change not applied: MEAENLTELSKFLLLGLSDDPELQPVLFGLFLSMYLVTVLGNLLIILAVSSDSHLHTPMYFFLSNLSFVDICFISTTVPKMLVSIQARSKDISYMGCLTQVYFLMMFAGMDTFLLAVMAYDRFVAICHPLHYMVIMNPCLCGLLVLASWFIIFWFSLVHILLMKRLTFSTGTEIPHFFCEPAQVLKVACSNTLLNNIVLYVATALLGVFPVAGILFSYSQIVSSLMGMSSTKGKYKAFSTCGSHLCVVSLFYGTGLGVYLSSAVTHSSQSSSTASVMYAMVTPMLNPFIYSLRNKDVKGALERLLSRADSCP
OR7D4 D52G, as listed by the source, stated change not applied: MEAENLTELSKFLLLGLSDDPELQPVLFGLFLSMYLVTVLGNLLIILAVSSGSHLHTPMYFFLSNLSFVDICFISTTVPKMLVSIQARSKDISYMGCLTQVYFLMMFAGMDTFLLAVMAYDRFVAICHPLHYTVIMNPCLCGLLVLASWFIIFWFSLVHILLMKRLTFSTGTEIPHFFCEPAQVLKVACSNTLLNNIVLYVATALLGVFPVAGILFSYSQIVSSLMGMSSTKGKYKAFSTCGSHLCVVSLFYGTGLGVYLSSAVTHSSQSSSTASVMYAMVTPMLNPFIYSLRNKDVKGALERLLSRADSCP
OR7D4 L162P, as listed by the source, stated change not applied: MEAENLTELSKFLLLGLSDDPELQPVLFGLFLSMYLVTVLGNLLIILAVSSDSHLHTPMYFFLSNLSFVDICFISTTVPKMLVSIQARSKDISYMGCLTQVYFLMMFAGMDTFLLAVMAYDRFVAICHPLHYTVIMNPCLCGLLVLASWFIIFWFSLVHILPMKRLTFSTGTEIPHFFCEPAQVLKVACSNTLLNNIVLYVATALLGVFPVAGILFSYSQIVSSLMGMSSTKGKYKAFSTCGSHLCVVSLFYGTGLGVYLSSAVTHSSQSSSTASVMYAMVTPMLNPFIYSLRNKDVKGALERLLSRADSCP
OR7D4 L292M, as listed by the source, stated change not applied: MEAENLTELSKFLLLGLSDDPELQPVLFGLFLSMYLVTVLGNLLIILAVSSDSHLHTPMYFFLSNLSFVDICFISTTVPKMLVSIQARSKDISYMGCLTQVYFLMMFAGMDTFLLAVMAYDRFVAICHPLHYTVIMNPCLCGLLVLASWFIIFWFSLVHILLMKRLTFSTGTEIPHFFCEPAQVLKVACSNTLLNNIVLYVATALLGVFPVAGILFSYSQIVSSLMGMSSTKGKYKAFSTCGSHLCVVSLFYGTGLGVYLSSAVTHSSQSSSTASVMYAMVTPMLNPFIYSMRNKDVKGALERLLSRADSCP
OR7D4, as listed by the source: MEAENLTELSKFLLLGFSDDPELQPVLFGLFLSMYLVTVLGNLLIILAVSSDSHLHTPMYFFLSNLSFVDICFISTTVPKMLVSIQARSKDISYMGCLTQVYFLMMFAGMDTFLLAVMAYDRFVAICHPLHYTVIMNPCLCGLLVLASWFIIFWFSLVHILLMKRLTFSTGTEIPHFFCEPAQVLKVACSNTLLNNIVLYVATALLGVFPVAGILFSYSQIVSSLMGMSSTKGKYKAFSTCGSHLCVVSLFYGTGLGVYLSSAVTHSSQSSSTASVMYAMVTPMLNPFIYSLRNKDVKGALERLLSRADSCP
OR7D4 R88W, as listed by the source, stated change not applied: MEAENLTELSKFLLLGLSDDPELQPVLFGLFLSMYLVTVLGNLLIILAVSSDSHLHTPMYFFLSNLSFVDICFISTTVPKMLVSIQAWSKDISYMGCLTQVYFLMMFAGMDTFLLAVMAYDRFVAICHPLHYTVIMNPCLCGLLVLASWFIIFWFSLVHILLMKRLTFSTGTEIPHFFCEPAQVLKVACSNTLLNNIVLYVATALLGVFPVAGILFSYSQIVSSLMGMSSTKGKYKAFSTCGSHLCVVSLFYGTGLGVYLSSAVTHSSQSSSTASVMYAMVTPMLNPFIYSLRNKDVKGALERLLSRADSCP
OR7D4 S75C, as listed by the source, stated change not applied: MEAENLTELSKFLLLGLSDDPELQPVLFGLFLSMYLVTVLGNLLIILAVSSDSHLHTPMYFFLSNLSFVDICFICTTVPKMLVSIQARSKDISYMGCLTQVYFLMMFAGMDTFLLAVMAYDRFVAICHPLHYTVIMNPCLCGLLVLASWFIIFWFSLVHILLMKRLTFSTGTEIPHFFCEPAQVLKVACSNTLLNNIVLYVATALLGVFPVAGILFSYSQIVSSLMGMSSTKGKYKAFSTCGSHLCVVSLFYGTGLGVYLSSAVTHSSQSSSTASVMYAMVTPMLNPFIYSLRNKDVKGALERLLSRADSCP

Consider 15 molecules from the M2OR odorant receptor database.

Details in all cases: stereoisomer not certain
The test system of experiment [1] is T1, OR7D4.
T1 sequence (whole entry): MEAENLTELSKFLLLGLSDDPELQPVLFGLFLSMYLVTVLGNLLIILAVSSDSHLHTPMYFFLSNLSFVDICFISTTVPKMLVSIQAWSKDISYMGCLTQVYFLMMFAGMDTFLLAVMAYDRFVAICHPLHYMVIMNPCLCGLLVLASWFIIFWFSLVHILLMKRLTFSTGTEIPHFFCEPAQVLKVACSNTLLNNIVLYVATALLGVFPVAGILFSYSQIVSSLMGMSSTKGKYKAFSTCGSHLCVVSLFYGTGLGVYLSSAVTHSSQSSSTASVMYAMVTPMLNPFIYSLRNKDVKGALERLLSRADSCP
Put shortly: (§1)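 Transient luciferase assays in mammalian cell lines were common, though methods varied by source. The values come from published papers and their supplementary material, with extra details from the original authors when needed. Responsive refers to a measured signal the original authors judged statistically different from baseline, and non-responsive (inactive) to the remainder.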

The target of experiment [2] is T2, OR7G1 (Homo sapiens) (UniProt Q8NGA0).
T2 sequence (whole entry): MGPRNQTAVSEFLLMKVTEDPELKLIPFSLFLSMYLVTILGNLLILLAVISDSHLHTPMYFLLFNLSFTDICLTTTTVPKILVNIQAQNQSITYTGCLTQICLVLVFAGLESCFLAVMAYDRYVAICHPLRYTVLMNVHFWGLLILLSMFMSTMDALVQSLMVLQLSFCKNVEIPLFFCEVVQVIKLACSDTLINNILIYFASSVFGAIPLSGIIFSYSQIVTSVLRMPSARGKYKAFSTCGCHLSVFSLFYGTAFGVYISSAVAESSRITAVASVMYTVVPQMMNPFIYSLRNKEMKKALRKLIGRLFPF
Put shortly: as §1

Experiment [3] deals with T3, OR7G2 (Homo sapiens) (UniProt Q8NG99).
T3 sequence (whole entry): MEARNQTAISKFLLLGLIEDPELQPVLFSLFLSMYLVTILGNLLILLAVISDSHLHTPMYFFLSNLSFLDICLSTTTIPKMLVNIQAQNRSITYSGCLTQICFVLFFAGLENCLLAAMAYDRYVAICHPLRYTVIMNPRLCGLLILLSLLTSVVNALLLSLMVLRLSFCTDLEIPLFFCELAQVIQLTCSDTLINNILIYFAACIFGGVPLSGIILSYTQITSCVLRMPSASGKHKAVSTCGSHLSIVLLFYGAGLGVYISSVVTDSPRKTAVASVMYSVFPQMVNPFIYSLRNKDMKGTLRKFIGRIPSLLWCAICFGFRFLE
In a few lines: as §1

Experiment [4] deals with T4, OR7G2.
T4 sequence (whole entry): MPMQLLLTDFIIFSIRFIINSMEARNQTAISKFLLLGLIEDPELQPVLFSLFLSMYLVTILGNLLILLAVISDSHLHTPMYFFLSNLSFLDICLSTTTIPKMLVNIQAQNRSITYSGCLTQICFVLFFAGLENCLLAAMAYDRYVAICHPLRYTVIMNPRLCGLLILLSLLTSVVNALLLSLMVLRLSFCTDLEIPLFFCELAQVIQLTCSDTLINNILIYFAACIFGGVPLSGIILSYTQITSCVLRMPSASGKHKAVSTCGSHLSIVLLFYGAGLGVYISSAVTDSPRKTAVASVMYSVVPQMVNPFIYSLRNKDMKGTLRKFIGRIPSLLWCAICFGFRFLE
Put shortly: as §1

The target in experiment [5] is T5, OR7G3 (Homo sapiens) (UniProt Q8NG95).
T5 sequence (whole entry): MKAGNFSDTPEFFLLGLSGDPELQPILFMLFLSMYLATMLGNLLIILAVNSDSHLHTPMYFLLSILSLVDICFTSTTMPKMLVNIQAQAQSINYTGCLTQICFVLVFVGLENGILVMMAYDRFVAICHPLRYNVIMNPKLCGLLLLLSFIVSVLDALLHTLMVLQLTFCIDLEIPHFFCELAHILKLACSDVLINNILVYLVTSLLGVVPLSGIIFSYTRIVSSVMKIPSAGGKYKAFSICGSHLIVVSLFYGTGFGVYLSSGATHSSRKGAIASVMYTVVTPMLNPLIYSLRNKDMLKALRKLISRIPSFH
Put shortly:
as §1

Experiment [6] has as its system OR7D4 D52G. Put shortly:
as §1

For experiment [7], the system named is OR7D4 H131Q. Put shortly: as §1
The test system of experiment [8] is OR7D4 L162P. Put shortly:
as §1

The test system of experiment [9] is OR7D4 L292M. Put shortly: as §1
Experiment [10] concerns OR7D4 M136I. Put shortly:
as §1

For experiment [11], the system named is OR7D4 R88W. Put shortly: as §1
In experiment [12] the test system is OR7D4 S75C. Put shortly:
as §1

The test system of experiment [13] is OR7D4 S84N. In a few lines:
as §1

Experiment [14] has as its system OR7D4 T133M. Put shortly: as §1
The subject of experiment [15] is OR7D4. In a few lines:
as §1
This is another data set of the same source.

Experiment [16] concerns the target OR7E24 (Homo sapiens) (UniProt Q6IFN5). Put shortly: as §1
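Further: active if original authors judged signal statistically different from baseline.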

With `CC12CCC(C1)C(C)(C)C2=O` (stereo not drawn), the “odorant receptor agonist call” value in experiment [1], in [2], in experiment [3], in [4] and in [5] was “inactive” in each case.
For `CC12CCC(CC1)C(C)(C)O2`, the “odorant receptor agonist call” value in experiment [1], in experiment [2], in experiment [3], in [4] and in experiment [5] was “inactive” each time.
Consider `CC(=O)OC(C)(C)C1CC=C(C)CC1` (stereo not drawn), for which the “odorant receptor agonist call” value in experiment [1], in [2], in experiment [3], in experiment [4] and in [5] was “inactive” throughout.
Regarding `CC(=O)C(C)=O`, the “odorant receptor agonist call” value in [1], in experiment [2], in [3], in [4] and in experiment [5] was “inactive” in each case.
For `CC(C)CCC(=O)O`, the “odorant receptor agonist call” value in [1], in experiment [2], in experiment [3], in [4] and in experiment [5] was “inactive” throughout.
As for `C=CCSCC=C`, the “odorant receptor agonist call” value in experiment [1], in [2], in experiment [3], in experiment [4] and in [5] was “inactive” each time.
As to `CCCCCCCC=O`, the “odorant receptor agonist call” value in [1], in experiment [2], in [3], in [4] and in [5] was “inactive” in each case.
In the case of `C=CCc1ccc(O)c(OC)c1`, the “odorant receptor agonist call” value in experiment [1] was “inactive”.
For `CC12C=CCC1C1CCC3CC(=O)CCC3(C)C1CC2` (stereo not drawn), the “odorant receptor agonist call” value in experiment [6], in experiment [8], in experiment [10], in experiment [12], in experiment [1] and in experiment [16] was “inactive” each time. Further, the “odorant receptor agonist call” value in [2], in [3], in experiment [4] and in experiment [5] was “inactive” throughout. Besides, the “odorant receptor agonist call” value in experiment [7], in experiment [9], in experiment [11], in experiment [13], in [14] and in experiment [15] was “active” in each case.
For the molecule `C=CCc1ccc(OC)c(OC)c1`, the “odorant receptor agonist call” value in experiment [1], in experiment [2], in experiment [3], in [4] and in experiment [5] was “inactive” each time.
As for `CC(C)(C)c1ccc(CCC=O)cc1`, the “odorant receptor agonist call” value in experiment [1], in experiment [2], in experiment [3], in experiment [4] and in experiment [5] was “inactive” throughout.
For the molecule `CCCCCCC=O`, the “odorant receptor agonist call” value in [1] is “inactive”.
As for `CC1COCc2cc3c(cc21)C(C)(C)C(C)C3(C)C` (stereo not drawn), the “odorant receptor agonist call” value in experiment [1], in [2] and in [3] was “inactive” in each case. The “odorant receptor agonist call” value in [4] and in experiment [5] was “active” in each case.
Turning to `c1ccc(Oc2ccccc2)cc1`, the “odorant receptor agonist call” value in experiment [1], in [2], in experiment [3], in [4] and in experiment [5] was “inactive” throughout.
As to `CCCCCCCCOC(C)=O`, the “odorant receptor agonist call” value in experiment [1], in experiment [2], in experiment [3], in [4] and in experiment [5] was “inactive” in each case.
